Laboratory results from paper PMC10852989, “Combining cisplatin and a STING agonist into one molecule for metalloimmunotherapy of cancer” (National Science Review, 2024).

System: Pan02 cells
Experiment: bulk mRNA sequencing of treated Pan02 cells
Format: cell-based, mouse
Settings: Pan02, 5 μM, 20 h; I-treated versus untreated; P < 0.05, |log2(fold change)| > 1

Question: For `COc1cc2cc(C(=O)CCC(=O)[O][Pt]([NH2])([NH2])([OH])([Cl])[Cl])sc2cc1OC` [conjugate I], which transcripts significantly downregulated is on record?
Answer: 2143

Question: What about the transcripts significantly upregulated of the same molecule?
Answer: 2563
